Measurements reported in PubChem BioAssay AID743121 (NCATS, 2013)
Here is one part, drawn at random, of about 26,000 reagents tested. 167 of all reagents (0.63%) count as active. 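Calls are per gene from RSA p-values that are not deposited; an individual active-marked siRNA can sensitise only weakly.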 Further read-outs or replicates are left out here.

Purpose: 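Partners whose loss is lethal together with topoisomerase I blockade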 (primary screen)
System: MDA-MB-231 cells, a human breast cancer line
Knock-down reagent: single siRNA against human genes, 20 nM siRNA (0.8 pmol per well)
Time to read-out: 120 h (drug added 48 h after transfection, read 72 h later)
Treatment: camptothecin 20 nM (about EC30) for 72 h; vehicle 0.1% DMSO in parallel plates
Measurement: 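CellTiter-Glo ATP signal, scaled to control siRNA as percent viability; sensitisation given as log2 of untreated divided by camptothecin-treated viability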
Reading the numbers: log2 vehicle/camptothecin viability: higher = stronger sensitisation to camptothecin; viability with camptothecin: higher = more viable cells
Active means: 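Active genes have an RSA gene-level p-value below 0.001, computed from the ratios of their separate siRNAs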

gene symbol,PubChem SID,log2 vehicle/camptothecin viability,viability with camptothecin (% of control),activity call
CXCL16,SID164496742,-0.3,109,inactive
CXCL16,SID164496744,-0.255,113,inactive
CXCL16,SID164496746,-0.0791,45.8,inactive
CXCL16,SID164496747,0.505,41.8,inactive
BRS3,SID164355635,0.122,106,inactive
BRS3,SID164355636,-0.29,54.7,inactive
BRS3,SID164355639,-0.583,75.2,inactive
BRS3,SID164355642,-0.222,77.7,inactive
BMAL2,SID164491873,-0.385,77.2,inactive
BMAL2,SID164491874,-0.0544,101,inactive
BMAL2,SID164491875,0.0664,68.9,inactive
CSF1,SID164359973,0.35,59.8,inactive
CSF1,SID164359975,-0.209,57.9,inactive
CSF1,SID164359976,-0.158,81.2,inactive
CSF1,SID164359978,-0.061,66.3,inactive
HTR1D,SID164370390,-0.166,86.4,inactive
HTR1D,SID164370392,0.275,57.8,inactive
HTR1D,SID164370393,-0.399,114,inactive
HTR1D,SID164370395,0.389,51.8,inactive
TBX21,SID164469045,-0.51,120,inactive
TBX21,SID164469046,-0.109,98.5,inactive
TBX21,SID164469048,0.00846,67.9,inactive
TBX21,SID164469050,0.165,48.3,inactive
NRAS,SID164378471,-0.432,113,inactive
NRAS,SID164378472,-0.304,31,inactive
NRAS,SID164378474,-0.399,104,inactive
NRAS,SID164378475,0.117,85.6,inactive
LCK,SID164373587,-0.2,112,inactive
LCK,SID164373589,-0.316,50.8,inactive
LCK,SID164373593,-0.186,56.3,inactive
LCK,SID164373594,-0.0964,76.2,inactive
RACK1,SID164410718,-0.245,62.3,inactive
RACK1,SID164410721,0.683,33,inactive
RACK1,SID164410725,-0.0862,93.2,inactive
TJP1,SID164391877,-0.401,30.5,inactive
TJP1,SID164391879,-0.115,106,inactive
TJP1,SID164391882,0.0429,72.3,inactive
TJP1,SID164391883,-0.29,43.8,inactive
SLC7A9,SID164415801,-0.0939,114,inactive
SLC7A9,SID164415802,0.0938,77.9,inactive
SLC7A9,SID164415804,-0.1,99.6,inactive
SLC7A9,SID164415805,-0.22,129,inactive
CIDEA,SID164358509,-0.234,93.3,inactive
CIDEA,SID164358510,-0.00383,95,inactive
CIDEA,SID164358513,-0.251,68.7,inactive
CIDEA,SID164358514,-0.269,106,inactive
